Laboratory results: paper doi:10.1101/2024.10.17.618965

Amino acid sequences for entries named in this document (tags omitted). A change or cut given only in a name is not applied to a line headed by its entry.
UniProt O95835: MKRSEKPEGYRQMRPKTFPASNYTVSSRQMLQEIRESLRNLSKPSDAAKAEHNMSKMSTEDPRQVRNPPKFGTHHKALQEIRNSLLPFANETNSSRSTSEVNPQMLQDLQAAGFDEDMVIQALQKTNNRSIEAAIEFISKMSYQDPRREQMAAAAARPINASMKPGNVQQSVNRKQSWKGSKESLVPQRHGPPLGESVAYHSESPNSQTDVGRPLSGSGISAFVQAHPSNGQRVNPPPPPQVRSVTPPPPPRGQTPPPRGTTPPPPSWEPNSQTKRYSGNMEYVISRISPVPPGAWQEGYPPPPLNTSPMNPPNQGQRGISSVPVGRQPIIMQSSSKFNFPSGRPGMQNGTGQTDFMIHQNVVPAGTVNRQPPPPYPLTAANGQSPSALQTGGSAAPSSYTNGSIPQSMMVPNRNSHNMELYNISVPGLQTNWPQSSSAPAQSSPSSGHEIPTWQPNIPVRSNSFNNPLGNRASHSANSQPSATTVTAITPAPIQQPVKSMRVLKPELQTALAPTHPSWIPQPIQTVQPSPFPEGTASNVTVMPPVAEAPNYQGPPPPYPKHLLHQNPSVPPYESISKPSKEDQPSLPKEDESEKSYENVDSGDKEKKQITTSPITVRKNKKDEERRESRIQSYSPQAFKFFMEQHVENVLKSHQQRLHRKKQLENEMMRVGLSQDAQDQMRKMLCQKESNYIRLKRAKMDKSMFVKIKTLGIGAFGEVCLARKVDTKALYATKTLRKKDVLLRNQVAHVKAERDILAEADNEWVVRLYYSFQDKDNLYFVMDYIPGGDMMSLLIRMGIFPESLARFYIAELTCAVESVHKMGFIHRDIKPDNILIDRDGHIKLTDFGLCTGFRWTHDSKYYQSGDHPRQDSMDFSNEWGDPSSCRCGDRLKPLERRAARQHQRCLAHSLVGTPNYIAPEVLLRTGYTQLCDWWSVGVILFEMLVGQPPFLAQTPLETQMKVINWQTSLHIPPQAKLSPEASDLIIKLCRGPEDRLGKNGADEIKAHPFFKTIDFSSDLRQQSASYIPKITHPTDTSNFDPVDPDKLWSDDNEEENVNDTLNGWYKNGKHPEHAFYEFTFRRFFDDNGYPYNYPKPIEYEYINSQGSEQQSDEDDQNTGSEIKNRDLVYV
UniProt Q9UDY2: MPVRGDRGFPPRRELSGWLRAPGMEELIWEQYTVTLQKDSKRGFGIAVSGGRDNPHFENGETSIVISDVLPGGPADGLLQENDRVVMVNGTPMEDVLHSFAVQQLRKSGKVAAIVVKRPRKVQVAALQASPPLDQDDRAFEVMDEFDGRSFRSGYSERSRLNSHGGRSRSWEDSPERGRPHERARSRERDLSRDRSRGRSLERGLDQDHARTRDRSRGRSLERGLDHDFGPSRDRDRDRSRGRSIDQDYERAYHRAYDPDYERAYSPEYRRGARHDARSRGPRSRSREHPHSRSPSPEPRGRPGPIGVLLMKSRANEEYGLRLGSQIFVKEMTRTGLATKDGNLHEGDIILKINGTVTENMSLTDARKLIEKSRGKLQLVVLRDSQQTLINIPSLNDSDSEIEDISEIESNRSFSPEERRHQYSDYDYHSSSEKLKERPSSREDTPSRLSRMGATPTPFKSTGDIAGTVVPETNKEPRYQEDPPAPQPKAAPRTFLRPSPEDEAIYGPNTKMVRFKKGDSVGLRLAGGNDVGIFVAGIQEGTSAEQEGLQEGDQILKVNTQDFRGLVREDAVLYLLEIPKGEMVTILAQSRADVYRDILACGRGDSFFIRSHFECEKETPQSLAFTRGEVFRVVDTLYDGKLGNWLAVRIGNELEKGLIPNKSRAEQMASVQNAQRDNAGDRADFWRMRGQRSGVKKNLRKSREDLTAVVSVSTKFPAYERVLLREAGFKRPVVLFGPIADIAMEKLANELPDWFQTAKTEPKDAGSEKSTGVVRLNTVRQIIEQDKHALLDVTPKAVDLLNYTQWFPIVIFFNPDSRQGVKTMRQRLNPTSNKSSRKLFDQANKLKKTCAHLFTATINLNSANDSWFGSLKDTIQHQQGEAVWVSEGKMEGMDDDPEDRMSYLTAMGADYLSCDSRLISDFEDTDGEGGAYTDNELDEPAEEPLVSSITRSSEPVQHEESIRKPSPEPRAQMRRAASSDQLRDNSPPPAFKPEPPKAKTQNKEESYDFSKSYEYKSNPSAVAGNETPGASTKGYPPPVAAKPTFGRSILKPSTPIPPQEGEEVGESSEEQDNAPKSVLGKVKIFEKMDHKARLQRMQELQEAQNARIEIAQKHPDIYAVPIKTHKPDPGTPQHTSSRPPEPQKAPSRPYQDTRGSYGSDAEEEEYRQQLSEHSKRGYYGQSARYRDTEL

Assays:
Assay in all cases: co-IP
[1] = target: FLAG-LATS1 P247A P250A (human) (UniProt O95835)
[2] = target: FLAG-LATS1 P456A P459A (human) (UniProt O95835)
[3] = target: FLAG-LATS1 R3A K6A (human) (UniProt O95835)

Measured: binding

full-length HA-ZO-2 (human ZO-2 in pXJ40) (from UniProt Q9UDY2 1-1190)
no binding: all assays above

Results are given in words; binding and its absence hold for the method and conditions named. Binding seen in cells or lysates may run through a third protein.
